According to paper PMC13545989:
Where a chain is given by its changes, count along the chain named. No constants are given. Whether binding was seen depends on the method and setting. In cells and extracts the contact can be indirect. A result given as binding can be weak or reduced; the word gives no strength. Sequences can lack the tags named with a protein.

What was measured:
Experiment in all cases: co-IP; FLAG purification of Miro1/FP/FLAG/I3-01 synthetic cargo from hTERT RPE-1 cell lines co-expressing TRAK/mScarlet variants; immunoblot of the associated motor-adaptor components (kinesin, dynein, dynactin); also done after kinesin RNAi (fig. S4E)
[1] = biological target: T1, TRAK2 chimera with the helix region (aa 81-106) of TRAK1 (mScarlet fusion) (UniProt O60296)
T1 sequence: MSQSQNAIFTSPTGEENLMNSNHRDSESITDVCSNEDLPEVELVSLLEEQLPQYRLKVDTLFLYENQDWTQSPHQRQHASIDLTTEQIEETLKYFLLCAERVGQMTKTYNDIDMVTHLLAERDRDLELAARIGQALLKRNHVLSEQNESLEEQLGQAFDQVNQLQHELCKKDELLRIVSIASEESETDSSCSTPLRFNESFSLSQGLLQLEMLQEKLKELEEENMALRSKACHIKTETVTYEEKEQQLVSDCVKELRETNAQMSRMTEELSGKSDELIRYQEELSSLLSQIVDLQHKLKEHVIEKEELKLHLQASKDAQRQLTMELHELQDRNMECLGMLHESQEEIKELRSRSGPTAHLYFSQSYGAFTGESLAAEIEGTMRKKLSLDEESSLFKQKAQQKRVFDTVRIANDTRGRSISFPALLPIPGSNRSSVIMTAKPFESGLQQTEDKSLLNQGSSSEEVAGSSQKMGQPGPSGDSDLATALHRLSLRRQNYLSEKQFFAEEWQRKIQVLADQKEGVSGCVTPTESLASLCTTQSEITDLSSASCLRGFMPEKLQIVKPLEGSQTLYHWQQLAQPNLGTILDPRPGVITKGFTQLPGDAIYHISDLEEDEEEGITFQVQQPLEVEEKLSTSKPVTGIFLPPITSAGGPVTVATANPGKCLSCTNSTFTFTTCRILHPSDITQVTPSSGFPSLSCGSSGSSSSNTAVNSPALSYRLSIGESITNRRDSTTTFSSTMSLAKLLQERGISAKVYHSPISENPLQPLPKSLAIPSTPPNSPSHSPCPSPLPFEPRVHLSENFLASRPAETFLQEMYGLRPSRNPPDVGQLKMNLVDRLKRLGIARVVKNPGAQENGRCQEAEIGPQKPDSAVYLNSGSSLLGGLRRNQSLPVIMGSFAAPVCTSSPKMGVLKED

[2] = biological target: T2, TRAK2 DRH mutant (F92A, M95A; mScarlet fusion) (UniProt O60296)
T2 sequence: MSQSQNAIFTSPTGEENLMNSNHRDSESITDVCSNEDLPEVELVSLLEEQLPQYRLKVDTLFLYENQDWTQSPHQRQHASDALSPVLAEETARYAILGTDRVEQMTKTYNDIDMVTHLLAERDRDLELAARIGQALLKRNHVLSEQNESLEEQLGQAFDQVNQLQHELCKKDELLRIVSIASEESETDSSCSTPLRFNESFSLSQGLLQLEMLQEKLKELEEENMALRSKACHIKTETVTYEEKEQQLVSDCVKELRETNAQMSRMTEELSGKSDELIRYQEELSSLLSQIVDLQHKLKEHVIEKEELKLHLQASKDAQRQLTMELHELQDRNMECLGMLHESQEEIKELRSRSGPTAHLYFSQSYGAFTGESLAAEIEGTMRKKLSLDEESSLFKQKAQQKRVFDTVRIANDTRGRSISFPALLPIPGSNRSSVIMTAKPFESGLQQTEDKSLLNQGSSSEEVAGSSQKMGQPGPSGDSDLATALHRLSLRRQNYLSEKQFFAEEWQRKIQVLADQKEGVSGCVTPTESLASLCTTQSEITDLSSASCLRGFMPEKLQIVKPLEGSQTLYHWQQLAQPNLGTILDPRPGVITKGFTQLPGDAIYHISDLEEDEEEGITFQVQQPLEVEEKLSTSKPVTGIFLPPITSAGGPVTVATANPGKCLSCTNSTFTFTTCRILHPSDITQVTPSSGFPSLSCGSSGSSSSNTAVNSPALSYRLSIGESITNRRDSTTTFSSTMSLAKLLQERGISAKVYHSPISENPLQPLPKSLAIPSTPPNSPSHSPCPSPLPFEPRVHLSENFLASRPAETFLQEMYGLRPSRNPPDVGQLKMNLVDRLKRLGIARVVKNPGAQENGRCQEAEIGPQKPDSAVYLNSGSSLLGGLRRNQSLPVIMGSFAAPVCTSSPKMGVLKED

[3] = biological target: T3, TRAK2 S84A (mScarlet fusion) (UniProt O60296)
T3 sequence: T2 sequence with S84A, A92F, A95M

Measured: binding

kinesin-1 (human (endogenous in hTERT RPE-1))
binds: all assays above
